In patent publication US20090098142A1:
These are yes or no findings as the source states them, for the method shown. Some entries that bind do so weakly or less than the wild type. Tags and fused reporters may be left off the sequences shown.

By UniProt entry, the sequences of proteins in these tests, tags left out. Where a name states a change or a piece, a line headed by the entry shows the natural chain unless it says otherwise.
UniProt Q5I6E4: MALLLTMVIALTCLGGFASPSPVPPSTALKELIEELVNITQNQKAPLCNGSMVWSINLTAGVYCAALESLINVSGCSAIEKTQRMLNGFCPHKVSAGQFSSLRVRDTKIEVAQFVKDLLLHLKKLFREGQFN

Molecular target: T1, sIL-13Rα2-Fc (soluble human IL-13 receptor alpha2 with a human IgG1 Fc tail) (human) (UniProt Q14627)
T1 sequence (looked up): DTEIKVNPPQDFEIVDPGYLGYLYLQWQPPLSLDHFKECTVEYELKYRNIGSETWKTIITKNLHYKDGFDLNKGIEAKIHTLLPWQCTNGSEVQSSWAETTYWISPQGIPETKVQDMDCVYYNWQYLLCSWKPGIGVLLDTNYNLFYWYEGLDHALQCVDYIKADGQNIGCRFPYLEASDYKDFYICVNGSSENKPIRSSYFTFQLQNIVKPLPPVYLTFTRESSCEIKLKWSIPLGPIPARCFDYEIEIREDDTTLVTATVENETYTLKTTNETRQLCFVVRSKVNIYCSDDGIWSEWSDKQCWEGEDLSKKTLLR
Test: SPR (BIACORE), sIL-13Rα2-Fc amine-coupled to a CM5 chip

- binding: binds
Substance: cynomolgus monkey IL-13 (NHP IL-13) (from UniProt Q5I6E4 21-132) (ligand)
